At least one compound was matched to its structure with a doubt left.
Test system: E. coli
Experiment: Antibiotic susceptibility test of a single living bacterium in whole blood by single-bacterium mass spectrometry (metabolite signal change)
Type: cell-based, Escherichia coli
Conditions: 30 min at 37° C.
Experimental: 1 mL of whole blood was taken and placed in a centrifuge tube, centrifuged at 3000 rpm for 8 min; the blood cell pellet was discarded; 10 μL of 8 mg/mL kanamycin and 10 μL of 2 mg/mL norfloxacin were respectively added into 500 μL of the supernatant containing the bacterium, and incubated with shaking at 37° C. After 30 min of incubation, the supernatant was centrifuged at 10,000 rpm for 8 min; the supernatant was discarded, and the pellet was resuspended in 100 μL of deionized water; the solution containing the bacterium not having been incubated with the antibiotic was used as a reference group, and the same operations as above were performed. […]
10 μL of 100 μM Acridine Orange as a staining agent was added into the solution containing the bacterium obtained in step (1) and step (2) to perform staining for 15 min. […] The resuspended solution containing the bacterium was dropped onto a polylysine slide and leave for 30 minutes to allow the bacterium to be adsorbed and fixed on the polylysine slide, and then the polylysine slide was rinsed with deionized water and dried at room temperature; the location of bacteria was observed under a fluorescence microscope. […]

## NC[C@H]1O[C@H](O[C@H]2[C@H](O)[C@@H](O[C@H]3O[C@H](CO)[C@@H](O)[C@H](N)[C@H]3O)[C@H](N)C[C@@H]2N)[C@H](O)[C@@H](O)[C@@H]1O [kanamycin]
E. coli from whole blood supernatant, 10 μL of 8 mg/mL kanamycin or 10 μL of 2 mg/mL norfloxacin added into 500 μL, FIG. 12
  change of alanyl-threonine (m/z 191) signal in a single bacterium after incubation with antibiotic: significantly reduced
When kanamycin concentration reached the minimal inhibitory concentration (MIC), 10 μL of 0.8, 8, 80 mg/mL tested in 500 μL, FIG. 13
  change of alanyl-threonine signal of a single E. coli after stimulation with different concentrations of kanamycin: decreased significantly

— US20240352502A1, “ANALYTICAL METHODS FOR BACTERIAL IDENTIFICATION AND ANTIBIOTIC SUSCEPTIBILITY TESTING IN BIOLOGICAL SAMPLES” (UNIVERSITY OF SCIENCE AND TECHNOLOGY OF CHINA, priority 2021, published 2024)
